# Measured values reported in patent US8415296B2 (Eli Lilly and Company, priority 2009, dated 2013).
# Assay: general procedure: Fmoc solid-phase peptide synthesis; Fmoc-Rink amide polystyrene resin (Rapp Polymere), approximately 0.7 mmol/g; DIC/HOBt
# Conditions: conjugation step, based on the amount of starting peptide
substance,measurement,value
His-(D-Ser)-Gln-Gly-Thr-Phe-Thr-Ser-Asp-(1-Nal)-Ser-Lys-Tyr-Leu-Asp-Glu-Lys-Ala-Ala-Gln-Glu-Phe-Val-Gln-Trp-Leu-Leu-Asn-(Aib)-Ala-Arg-Asn-Arg-Asn-Asn-Ile-Ala-Cys(20 kDa PEG)-Cys(20 kDa PEG),conjugation yield,70 to 80%
